2 molecules from patent US20070122380A1 (UNIVERSITY OF CONNECTICUT, published 2007) can be followed below.

Chains of the proteins cited; added tags and fusions are not shown. Residues count along the entry.
UniProt Q08048, residues 496-728: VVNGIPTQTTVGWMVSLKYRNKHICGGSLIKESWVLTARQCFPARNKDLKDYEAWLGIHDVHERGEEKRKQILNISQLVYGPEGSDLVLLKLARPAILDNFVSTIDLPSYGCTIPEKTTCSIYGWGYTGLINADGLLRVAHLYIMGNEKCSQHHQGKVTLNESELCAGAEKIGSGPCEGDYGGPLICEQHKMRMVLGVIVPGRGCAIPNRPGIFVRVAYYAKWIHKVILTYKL

No constants are given. Whether binding was seen depends on the method and setting. Some entries that bind do so weakly or less than the wild type.

Substrate in assay [1]: PPBSF cofactor (native, 30 kD non-IL-7 component of PPBSF) (mouse) (UniProt Q08048)
In words: complex formation in IL-7 KO conditioned medium, Western immunoblot with anti-IL-7 mAb (FIG. 8). (In western blotting, separated proteins are transferred to a membrane and probed.)

Substrate in assay [2]: PPBSF cofactor (native, 30 kD non-IL-7 component of PPBSF) (mouse) (UniProt Q08048)
In words: complex formation on mixing conditioned media, Western immunoblot with anti-IL-7 mAb (FIG. 9).

B1: recombinant IL-7 (ligand)
chain: ECHIKDKEGKAYESVLMISIDELDKMTGTDSNCPNNEPNFFRKHVCDDTKEAAFLNRAARKLKQFLKMNISEEFNVHLLTVSQGTQTLVNCTSKEEKNVKEQKKNDACFLKRLLREIKTCWNKILKGSI
For the molecule B1, in assay [1], the binding entry was “binds”.

B2: native IL-7 (from pre-B CM) (ligand)
chain: ECHIKDKEGKAYESVLMISIDELDKMTGTDSNCPNNEPNFFRKHVCDDTKEAAFLNRAARKLKQFLKMNISEEFNVHLLTVSQGTQTLVNCTSKEEKNVKEQKKNDACFLKRLLREIKTCWNKILKGSI
B2: the binding entry in assay [2] was “binds”.
